# Library screen at single concentrations

Amino acid sequences for entries named in this document (tags omitted). Residues count along the entry.
UniProt A4I591, 1-473: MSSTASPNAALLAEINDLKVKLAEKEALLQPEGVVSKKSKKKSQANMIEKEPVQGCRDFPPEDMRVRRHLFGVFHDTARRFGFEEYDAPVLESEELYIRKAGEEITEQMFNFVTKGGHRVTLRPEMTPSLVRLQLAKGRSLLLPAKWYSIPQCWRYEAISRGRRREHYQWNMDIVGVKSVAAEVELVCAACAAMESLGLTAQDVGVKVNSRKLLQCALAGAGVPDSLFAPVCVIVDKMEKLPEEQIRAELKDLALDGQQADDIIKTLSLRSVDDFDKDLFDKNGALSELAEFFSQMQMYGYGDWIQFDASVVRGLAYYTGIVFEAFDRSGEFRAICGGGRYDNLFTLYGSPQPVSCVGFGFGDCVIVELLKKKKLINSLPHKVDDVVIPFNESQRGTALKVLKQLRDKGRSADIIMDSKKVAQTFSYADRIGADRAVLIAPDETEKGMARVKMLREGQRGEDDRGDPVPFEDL
UniProt Q8IDJ8, 1-583: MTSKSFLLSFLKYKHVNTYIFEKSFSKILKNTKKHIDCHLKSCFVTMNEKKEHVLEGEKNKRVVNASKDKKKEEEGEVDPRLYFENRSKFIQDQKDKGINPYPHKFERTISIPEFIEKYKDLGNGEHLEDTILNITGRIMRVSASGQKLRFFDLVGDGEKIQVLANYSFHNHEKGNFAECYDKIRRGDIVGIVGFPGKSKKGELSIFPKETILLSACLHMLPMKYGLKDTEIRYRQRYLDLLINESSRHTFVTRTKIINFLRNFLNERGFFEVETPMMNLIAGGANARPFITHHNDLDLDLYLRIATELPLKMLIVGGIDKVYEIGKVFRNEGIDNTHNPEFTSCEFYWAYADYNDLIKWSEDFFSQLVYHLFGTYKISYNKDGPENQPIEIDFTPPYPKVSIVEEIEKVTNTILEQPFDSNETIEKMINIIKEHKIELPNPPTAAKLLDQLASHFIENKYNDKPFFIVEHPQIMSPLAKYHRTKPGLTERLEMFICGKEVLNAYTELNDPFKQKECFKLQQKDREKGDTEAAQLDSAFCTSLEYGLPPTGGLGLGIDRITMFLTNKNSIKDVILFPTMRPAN

From ChEMBL document CHEMBL3988442, “University of Dundee, Small-Polar-MMV Screening Library” (2021).

LiHisRS: 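Histidine-tRNA ligase, Leishmania infantum (UniProt A4I591). Enzyme assay of histidyl-tRNA synthetase; the read-out is not stated. Concentration: 30 µM. Higher reads as stronger inhibition (inferred: compounds with an IC50 in retests scored well above the rest). The assay is labelled LdHisRS but filed under L. infantum. Of about 69,000 compounds tested this way, about 410 (0.6%) reached 50% or more in at least one test.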
PfKRS1: 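Lysine-tRNA ligase, Plasmodium falciparum 3D7 (UniProt Q8IDJ8). Enzyme assay of the cytosolic lysyl-tRNA synthetase in 384-well plates, read by luminescence. Concentration: 30 µM. Higher reads as stronger inhibition, judged from the few compounds that gave an IC50. About 69,000 compounds were tested under these conditions; 0.071% (about 49) showed 50% or more at least once.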

Values are the deposited “Percent Effect”, in %.
How 0% and 100% were set is not recorded. Most values in the screen are low, and negative values occur.
This is an unselected part of the compounds tested.

- Cc1nc(S(=O)(=O)CCn2cccn2)n(C2CCCC2)c1C | LiHisRS: 6.494%; PfKRS1: 3.898%
- c1cnc(N2CCO[C@H]3CN(Cc4c[nH]cn4)C[C@H]32)cn1 | LiHisRS: 18.42%; PfKRS1: 1.78%
- CC(C)(C)CC(NC(=O)N1CCS(=O)(=O)CC1)C(F)(F)F (centres unmarked) | LiHisRS: 6.667%; PfKRS1: 6.939%
- CCc1cccc(N2CCC(NC(=O)c3ccco3)CC2)c1 | LiHisRS: 11.3%; PfKRS1: -0.666%
- O=C(CC1CCCC1)Nc1ccc(-n2cc(Cl)cn2)nc1 | LiHisRS: 2.632%; PfKRS1: 0%
- Cc1cc(N2CCOC(c3ccncn3)C2)ncn1 (centres unmarked) | LiHisRS: 9.859%; PfKRS1: 2.484%
- Cn1cc(CN2CCN(Cc3nccn3C)CC2)cn1 | LiHisRS: -3.774%; PfKRS1: -8.214%
- CC(C)(C)C(NC(=O)CCCS(C)(=O)=O)c1ccc(F)cc1F (centres unmarked) | LiHisRS: 6.667%; PfKRS1: -1.994%
- O=C(CSCC1CC1)N1CCCC(c2nccn2Cc2ccccn2)C1 (centres unmarked) | LiHisRS: 9.677%; PfKRS1: 0.3233%
- Nc1cc(-c2cccc3c2CCNC3)ncn1 | LiHisRS: 15.79%; PfKRS1: 1.903%
- COc1ccc(C(=O)N2CCC(Nc3cccnn3)CC2)c(OC)c1 | LiHisRS: 0%; PfKRS1: -4.839%
- Cc1cc2nc(C(C)C)cc(NCc3ccncc3)n2n1 | LiHisRS: 20.78%; PfKRS1: 11.6%
- COc1cc(-c2cc(OC)c(OC)c(OC)c2)ncn1 | LiHisRS: 20%; PfKRS1: 1.874%
- CCN1CCCC1CNC(=O)c1cc(COc2ccccc2F)[nH]n1 (centres unmarked) | LiHisRS: 18.03%; PfKRS1: 3.395%
- CCN1CCCC(C)(C(=O)NCCc2nnc(C)[nH]2)C1 (centres unmarked) | LiHisRS: 2.083%; PfKRS1: 7.118%
- CC(C)(C)OC(=O)NC(C)(C)c1noc(Cn2ccnc2)n1 | LiHisRS: 9.917%; PfKRS1: 4.717%
- Cc1ccc(C(=O)N2CCO[C@H]3[C@@H](OCc4ccccn4)CC[C@@H]32)o1 | LiHisRS: 24.27%; PfKRS1: 6.063%
- CCN(CCCNC(=O)c1ccc(C)[nH]c1=O)S(C)(=O)=O | LiHisRS: 9.091%; PfKRS1: -0.6645%
- O=S(=O)(C1CC1)N1CCO[C@@H]2CC(COCc3cccnc3)C[C@H]21 (some centres unmarked) | LiHisRS: 13.21%; PfKRS1: 4.865%
- COc1cccc(C(NCc2ccc(SC)cc2)c2nccn2C)c1 (centres unmarked) | LiHisRS: 16.51%; PfKRS1: 1.524%
- CCC(=O)N1CCN(c2cc(-n3cnc(C)c3C)nc(C)n2)CC1 | LiHisRS: 6.452%; PfKRS1: 0.443%
- COc1ccccc1CCN1CCCC(CN(C)Cc2cc(C)n[nH]2)C1 (centres unmarked) | LiHisRS: 13.25%; PfKRS1: 3.848%
- CC(NC(=O)N(C)Cc1ccsc1)c1ccc2c(c1)CCC(=O)N2 (centres unmarked) | LiHisRS: 24.8%; PfKRS1: -0.8853%
- COc1cc(N(C)Cc2cc(C(C)(C)C)n[nH]2)ncn1 | LiHisRS: 13.73%; PfKRS1: 1.825%
- CC(C)c1cc(N2CCC(CCC(=O)NC3CC3)CC2)n2nccc2n1 | LiHisRS: 13.33%; PfKRS1: 5.274%
- Cc1noc(-c2ccc(N(C)Cc3ccncn3)nc2)n1 | LiHisRS: 11.76%; PfKRS1: 3.973%
- CC1(C)[C@H]2CC=C(CN3CCCn4nc(CCC(=O)O)cc4C3)[C@@H]1C2 | LiHisRS: 17.02%; PfKRS1: 3.232%
- CC(NC(=O)c1cc(N2CCNC2=O)ccc1F)c1ccc(F)cc1 (centres unmarked) | LiHisRS: 11.57%; PfKRS1: 2.688%
- CNC(=O)CC1CCN(C(=O)NCC2(c3ccccc3F)CC2)CC1 | LiHisRS: 9.649%; PfKRS1: 4.971%
- CN(Cc1cc(Br)cn1C)C(=O)Cc1cccc(O)c1 | LiHisRS: 0%; PfKRS1: 3.696%
- COCCN(Cc1c(C)nn(C)c1C)C(=O)C1COc2ccccc2C1 (centres unmarked) | LiHisRS: 18.8%; PfKRS1: 5.829%
- Cc1cccc2c1nc1n2[C@@H](CNC(=O)C2CCOCC2)COC1 | LiHisRS: 22.97%; PfKRS1: 5.044%
- Cc1cc(C(=O)N2CCc3ncnc(-c4cnn(C)c4)c3CC2)c(C)o1 | LiHisRS: 8.333%; PfKRS1: 2.107%

3 of the entries, repeated:

- CCC(=O)N1CCN(c2cc(-n3cnc(C)c3C)nc(C)n2)CC1 | LiHisRS: 6.452%; PfKRS1: 0.443%
- CN(Cc1cc(Br)cn1C)C(=O)Cc1cccc(O)c1 | LiHisRS: 0%; PfKRS1: 3.696%
- COc1ccccc1CCN1CCCC(CN(C)Cc2cc(C)n[nH]2)C1 (centres unmarked) | LiHisRS: 13.25%; PfKRS1: 3.848%